Results are given in words; binding and its absence hold for the method and conditions named. Binding seen in cells or lysates may run through a third protein.
Biological target: T1, β-dystroglycan (endogenous, C2C12) (mouse (endogenous in C2C12)) (UniProt Q62165)
T1 sequence: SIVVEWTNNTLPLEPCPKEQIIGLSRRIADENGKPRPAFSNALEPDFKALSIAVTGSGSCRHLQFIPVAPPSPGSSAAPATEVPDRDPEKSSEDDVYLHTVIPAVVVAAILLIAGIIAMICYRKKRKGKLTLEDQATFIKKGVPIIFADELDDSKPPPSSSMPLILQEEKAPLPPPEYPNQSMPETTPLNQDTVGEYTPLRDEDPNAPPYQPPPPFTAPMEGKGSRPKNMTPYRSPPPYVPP
Assay: co-IP; C2C12 lysates (500 ug protein) precipitated with anti-β-DG antibody (Mandag) and protein G-agarose, overnight at 4 °C; lysis buffer 50 mM Tris-HCl pH 8, 150 mM NaCl, 1% Triton X-100; western blot for β-DG, UBF, B23, fibrillarin; nonspecific IgG in parallel

binding: no binding
B1: fibrillarin (protein, UniProt P35550 1-327)
chain: MKPGFSPRGGGFGGRGGFGDRGGRGGGRGGRGGFGGGRGGFGGGGRGRGGGGGGFRGRGGGGGRGGGFQSGGNRGRGGGRGGKRGNQSGKNVMVEPHRHEGVFICRGKEDALVTKNLVPGESVYGEKRVSISEGDDKIEYRAWNPFRSKLAAAILGGVDQIHIKPGAKVLYLGAASGTTVSHVSDIVGPDGLVYAVEFSHRSGRDLINLAKKRTNIIPVIEDARHPHKYRMLIAMVDVIFADVAQPDQTRIVALNAHTFLRNGGHFVISIKANCIDSTASAEAVFASEVKKMQQENMKPQEQLTLEPYERDHAVVVGVYRPPPKVKN
